Measured values as given in US5073566A, “Angiotensin II antagonist 1,3-imidazoles and use thereas” (Eli Lilly and Company, priority 1989, dated 1991).
Where a name gives a salt, the structure may show the parent alone. At least one compound was matched to its structure with a doubt left.

System: angiotensin II receptor
Assay: Adrenal Glomerulosa Test System: I125-angiotensin II binding to adrenal membranes
Details: percent inhibition of I125 angiotensin binding at 10^-5 M of antagonist; rat adrenal membranes; 0.1 nM I125-angiotensin II

CCCCCCC(C(=O)O)n1cnc(NC(=O)C(O)(c2ccccc2)c2ccccc2)c1 (stereo not drawn) [Example 29, α-Hexyl-[(hydroxydiphenylacetyl)amino]-1H-imidazole-1-acetic acid hydrochloride]
Adrenal Glomerulosa (% Inhibition of Binding): 40%
